In paper doi:10.1101/2021.07.29.454387 (bioRxiv, 2021):
Results are given in words; binding and its absence hold for the method and conditions named. In cells and extracts the contact can be indirect. These calls come from enrichment with a bait or labelling near it, and not all partners need be listed.

T1: biotinylated synthetic peptide derived from the C-terminus of SNX17 (457-470)
T1 sequence (peptide, biotin (position not stated)): HGNFAFEGIGDEDL

B1: endogenous PDLIM4 (protein, UniProt P50479 1-330)
chain: MPHSVTLRGPSPWGFRLVGGRDFSAPLTISRVHAGSKAALAALCPGDLIQAINGESTELMTHLEAQNRIKGCHDHLTLSVSRPEGRSWPSAPDDSKAQAHRIHIDPEIQDGSPTTSRRPSGTGTGPEDGRPSLGSPYGQPPRFPVPHNGSSEATLPAQMSTLHVSPPPSADPARGLPRSRDCRVDLGSEVYRMLREPAEPVAAEPKQSGSFRYLQGMLEAGEGGDWPGPGGPRNLKPTASKLGAPLSGLQGLPECTRCGHGIVGTIVKARDKLYHPECFMCSDCGLNLKQRGYFFLDERLYCESHAKARVKPPEGYDVVAVYPNAKVELV

What follows are molecules tested against T1, biotinylated synthetic peptide derived from the C-terminus of SNX17 (457-470) (assay: affinity purification with mass spectrometry).
For B1, the binding was “binds”.

Molecular target: T1, biotinylated synthetic peptide derived from the C-terminus of SNX17 (457-470)
Assay: affinity purification with mass spectrometry
Remark: another data set of the same source
“endogenous CCDC22 (from UniProt O60826 1-627)” was tested, and the binding was “binds”.
With “endogenous CCDC93 (from UniProt Q567U6 1-631)” the binding was “binds”.
“endogenous COMMD1 (from UniProt Q8N668 1-190)” was tested, and the binding was “binds”.
For “endogenous COMMD4 (from UniProt Q9H0A8 1-199)”, the binding was “binds”.
In the case of “endogenous COMMD5 (from UniProt Q9GZQ3 1-224)”, the binding is reported as “binds”.
For “endogenous COMMD7 (from UniProt Q86VX2 1-200)”, the binding was “binds”.
For “endogenous COMMD8 (from UniProt Q9NX08 1-183)”, the binding was “binds”.
In the case of “endogenous COMMD9 (from UniProt Q9P000 1-198)”, the binding is reported as “binds”.
With “endogenous COMMD10 (from UniProt Q9Y6G5 1-202)” the binding was “binds”.
For “endogenous PDLIM1 (from UniProt O00151 1-329)”, the binding was “binds”.
In the case of “endogenous PDLIM7 (from UniProt Q9NR12 1-457)”, the binding is reported as “binds”.
